Laboratory results as given in patent US11473088B2, “Method of treating cancer and method of sensitizing cancer cells to the action of chemotherapeutic agents via growth hormone receptor antagonists or knock down” (Ohio University, priority 2016, dated 2022).
Entries after “also recorded” stand apart in the source; their conditions may differ. At least one structure is not confirmed: it was looked up by name or label, or the drawing left a doubt.

Legend:
Assay in all cases: ABC transporter RNA (RT-qPCR) following drug treatment
Type in all cases: cell-based, human
[1] = tested on: MALME-3M cells; details: for Efflux Pumps (expression level change, p < 0.05): ABC-transporter pumps with significantly down-regulated RNA expressions: 24 hr. drug exposure, GHR-siRNA vs scr-siRNA transfected
Procedure: (§1) Transfection was performed using siLentFect lipid reagent (Biorad #170-3360, Hercules, Calif.) following the manufacturer's protocol. […] Media was changed after 24 hours. RNA levels were analyzed 48 hours post transfection while protein levels were analyzed at 60 hours post-transfection. For drug treatment, drugs at the specified concentrations noted above were added to the cells 48 hours post-transfection and treated for 24 hours prior to quantitation of RNA expressions.
(§2) RNA extraction, RT-qPCR, and protein extraction were performed as described in Example 1, above.

[2] = tested on: MDA-MB-435 cells; details: for Efflux Pumps (expression level change, p < 0.05): ABC-transporter pumps with significantly down-regulated RNA expressions: 24 hr. drug exposure, GHR-siRNA vs scr-siRNA transfected
Procedure: as §1, §2

[3] = tested on: SK-MEL-28 cells; details: for Efflux Pumps (expression level change, p < 0.05): ABC-transporter pumps with significantly down-regulated RNA expressions: 24 hr. drug exposure, GHR-siRNA vs scr-siRNA transfected
Procedure: as §1, §2

[4] = tested on: SK-MEL-5 cells; details: for Efflux Pumps (expression level change, p < 0.05): ABC-transporter pumps with significantly down-regulated RNA expressions: 24 hr. drug exposure, GHR-siRNA vs scr-siRNA transfected
Procedure: as §1, §2

[5] = tested on: MDA-MB-435 cells; details: 24 hr sub-EC50 drug, 50 ng/mL hGH
[6] = tested on: SK-MEL-5 cells; details: 24-hour drug, presence vs absence of 50 ng/mL GH
[7] = 24-hour drug, presence vs absence of 50 ng/mL GH
[8] = 24 hr sub-EC50 drug, 50 ng/mL hGH

Structure (SMILES): C=C1C(=O)[C@]23[C@H](O)[C@H]1CC[C@H]2[C@@]12CO[C@]3(O)[C@@H](O)[C@@H]1C(C)(C)CC[C@@H]2O [oridonin]
- ABCB1 RNA expression on drug exposure in presence of GH [1, 7]: increase
- Efflux Pumps (expression level change, p < 0.05): ABC-transporter pumps with significantly down-regulated RNA expressions [1]: ABCB1, ABCB5, ABCG1
- ABCB5 RNA level in response to drug [2, 8]: significantly upregulated
- Efflux Pumps (expression level change, p < 0.05): ABC-transporter pumps with significantly down-regulated RNA expressions [2]: ABCB1, ABCB5, ABCG1
- ABCG2 RNA expression on drug exposure in presence of GH [3, 7]: upregulation
- ABCB1 RNA level in response to drug [3, 8]: Significant upregulation
- ABCB5 RNA level in response to drug [3, 8]: significantly upregulated
- Efflux Pumps (expression level change, p < 0.05): ABC-transporter pumps with significantly down-regulated RNA expressions [3]: ABCB5, ABCC1, ABCG1
- ABCC2 RNA expression on drug exposure in presence of GH [4, 7]: increase
- ABCG2 RNA expression on drug exposure in presence of GH [4, 7]: increase
- ABCG2 RNA level in response to drug [4, 8]: significantly upregulated
- Efflux Pumps (expression level change, p < 0.05): ABC-transporter pumps with significantly down-regulated RNA expressions [4]: ABCC1
- ABCG1 RNA level in response to drug [5]: surged
- ABCB5 RNA expression on drug exposure in presence of GH [6]: increase

Structure (SMILES): CCCS(=O)(=O)Nc1ccc(F)c(C(=O)c2c[nH]c3ncc(-c4ccc(Cl)cc4)cc23)c1F [vemurafenib]
- Efflux Pumps (expression level change, p < 0.05): ABC-transporter pumps with significantly down-regulated RNA expressions [1]: ABCB5, ABCG2
- Efflux Pumps (expression level change, p < 0.05): ABC-transporter pumps with significantly down-regulated RNA expressions [2]: ABCB1, ABCB5, ABCB8, ABCC1,; also recorded: ABCC2, ABCG1
- ABCB1 RNA expression on drug exposure in presence of GH [3, 7]: upregulation
- ABCB8 RNA expression on drug exposure in presence of GH [3, 7]: upregulation
- ABCC1 RNA expression on drug exposure in presence of GH [3, 7]: upregulation
- ABCB8 RNA level in response to drug [3, 8]: robust increase
- ABCC2 RNA level in response to drug [3, 8]: significantly increased
- ABCG1 RNA level in response to drug [3, 8]: surged
- ABCG2 RNA level in response to drug [3, 8]: significantly upregulated
- Efflux Pumps (expression level change, p < 0.05): ABC-transporter pumps with significantly down-regulated RNA expressions [3]: ABCB8, ABCC2, ABCG1, ABCG2
- ABCB8 RNA expression on drug exposure in presence of GH [4, 7]: increase
- ABCG2 RNA expression on drug exposure in presence of GH [4, 7]: increase
- Efflux Pumps (expression level change, p < 0.05): ABC-transporter pumps with significantly down-regulated RNA expressions [4]: ABCC2, ABCG2
- ABCB5 RNA expression on drug exposure in presence of GH [6]: increase
